Results are given in words; binding and its absence hold for the method and conditions named. Some results given as binding are weak or reduced against the parent protein; the word gives no strength.
Target: BCMA on K562-BCMA cells (稳定表达BCMA的阳性细胞K562-BCMA) (UniProt Q02223)
Experiment: immunofluorescence microscopy on fixed K562-BCMA cells, PE anti-His detection

Amino acid sequences for entries named in this document (tags omitted).
UniProt Q02223: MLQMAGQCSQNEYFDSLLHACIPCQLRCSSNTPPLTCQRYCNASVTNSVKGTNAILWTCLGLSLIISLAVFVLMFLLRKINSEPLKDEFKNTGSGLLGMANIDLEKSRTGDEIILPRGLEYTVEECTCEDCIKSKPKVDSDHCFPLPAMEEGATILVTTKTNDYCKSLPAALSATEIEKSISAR

B1: 抗BCMA单链抗体B36 (anti-BCMA fully human scFv B36) (scFv, not shown: small tags and cut ends)
scFv: QVQLVQSGAEVKKPGSSVKVSCKASGGTFSSYAISWVRQAPGQGLEWMGRIIPILGIANYAQKFQGRVTITADESTSTAYMELSSLRSDDTAVYYCARAGYDRSGYYFQHWGQGTLVTVSSGGGGSGGGGSGGGGSVLTQPPSVSGTPGQRVTISCSGSSSNIGSNIVNWYQQVPGTAPKLLIYSNNQRPSGVPGRFSGSKSGTSASLAIRGLQSDDEADYYCAAWDGGPRGHYVFGTGTKVSVL
With B1 the binding was “binds”.

Reference: patent CN112851815A
